These results are taken from paper PMC11208045.

By UniProt entry, the sequences of proteins in these tests, tags left out.
UniProt P34152: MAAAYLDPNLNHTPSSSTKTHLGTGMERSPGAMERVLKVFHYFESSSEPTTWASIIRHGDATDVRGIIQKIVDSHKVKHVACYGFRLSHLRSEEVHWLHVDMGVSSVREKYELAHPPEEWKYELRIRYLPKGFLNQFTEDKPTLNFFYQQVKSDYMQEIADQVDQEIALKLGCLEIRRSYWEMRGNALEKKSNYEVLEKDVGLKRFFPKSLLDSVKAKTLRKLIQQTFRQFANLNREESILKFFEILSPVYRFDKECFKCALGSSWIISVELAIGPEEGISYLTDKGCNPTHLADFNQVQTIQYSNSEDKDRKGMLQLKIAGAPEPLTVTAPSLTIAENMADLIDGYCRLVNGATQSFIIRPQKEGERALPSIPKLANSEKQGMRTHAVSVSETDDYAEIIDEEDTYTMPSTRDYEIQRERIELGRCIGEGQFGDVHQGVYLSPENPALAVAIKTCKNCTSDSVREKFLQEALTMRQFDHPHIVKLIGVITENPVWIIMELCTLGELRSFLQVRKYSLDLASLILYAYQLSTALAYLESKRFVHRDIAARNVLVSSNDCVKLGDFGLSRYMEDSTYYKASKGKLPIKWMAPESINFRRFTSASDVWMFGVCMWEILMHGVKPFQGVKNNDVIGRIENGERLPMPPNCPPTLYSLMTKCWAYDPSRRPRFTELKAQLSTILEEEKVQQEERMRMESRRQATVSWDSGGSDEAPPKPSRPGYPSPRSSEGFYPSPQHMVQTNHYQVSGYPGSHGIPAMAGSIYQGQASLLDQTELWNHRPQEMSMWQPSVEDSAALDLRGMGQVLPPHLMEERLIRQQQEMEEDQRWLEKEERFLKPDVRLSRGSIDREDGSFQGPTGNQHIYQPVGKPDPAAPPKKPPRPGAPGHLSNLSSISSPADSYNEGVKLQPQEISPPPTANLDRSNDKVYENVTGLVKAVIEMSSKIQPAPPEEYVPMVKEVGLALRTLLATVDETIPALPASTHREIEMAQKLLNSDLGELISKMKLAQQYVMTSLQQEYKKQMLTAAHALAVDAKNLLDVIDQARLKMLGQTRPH
UniProt Q05397: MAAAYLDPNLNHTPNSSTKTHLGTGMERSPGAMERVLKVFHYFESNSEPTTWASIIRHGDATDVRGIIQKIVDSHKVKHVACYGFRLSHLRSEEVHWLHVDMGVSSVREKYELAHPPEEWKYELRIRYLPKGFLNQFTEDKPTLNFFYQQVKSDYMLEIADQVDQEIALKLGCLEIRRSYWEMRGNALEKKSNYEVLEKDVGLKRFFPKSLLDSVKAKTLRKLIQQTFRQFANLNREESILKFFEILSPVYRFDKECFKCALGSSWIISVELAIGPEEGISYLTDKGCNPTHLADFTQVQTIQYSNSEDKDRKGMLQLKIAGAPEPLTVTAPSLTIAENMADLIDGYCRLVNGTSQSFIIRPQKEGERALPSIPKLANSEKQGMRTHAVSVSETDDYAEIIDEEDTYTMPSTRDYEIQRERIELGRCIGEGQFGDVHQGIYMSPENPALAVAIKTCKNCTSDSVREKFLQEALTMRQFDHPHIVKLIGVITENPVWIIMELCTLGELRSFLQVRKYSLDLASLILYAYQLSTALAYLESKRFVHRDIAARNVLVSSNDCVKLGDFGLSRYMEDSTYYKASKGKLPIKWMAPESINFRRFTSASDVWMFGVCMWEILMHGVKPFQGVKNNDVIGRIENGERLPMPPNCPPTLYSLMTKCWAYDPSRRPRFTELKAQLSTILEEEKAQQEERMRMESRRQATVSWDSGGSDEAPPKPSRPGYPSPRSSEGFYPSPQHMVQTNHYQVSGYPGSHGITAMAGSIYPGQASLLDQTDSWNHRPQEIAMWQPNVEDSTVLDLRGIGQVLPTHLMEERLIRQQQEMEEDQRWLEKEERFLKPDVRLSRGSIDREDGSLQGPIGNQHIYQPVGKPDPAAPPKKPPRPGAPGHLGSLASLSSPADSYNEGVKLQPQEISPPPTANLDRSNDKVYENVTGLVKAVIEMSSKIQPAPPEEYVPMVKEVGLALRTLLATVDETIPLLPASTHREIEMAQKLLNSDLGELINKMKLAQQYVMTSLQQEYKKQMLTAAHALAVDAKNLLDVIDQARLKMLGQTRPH

No constants are given. Whether binding was seen depends on the method and setting. In cells and extracts the contact can be indirect. Some entries that bind do so weakly or less than the wild type.

Assay [1] addresses Epidermal growth factor receptor (Egfr), mouse (mouse (endogenous in cecal mucosa)) (UniProt Q01279). The assay is described as follows: co-IP; cecal mucosa lysates of 6-week-old mice (vehicle-treated B and BC, erlotinib-treated BC; KC and BC), pre-cleared with Protein G-sepharose, incubated with anti-EGFR antibody conjugated to agarose at 4 °C for 4 hr; washed with 20 mM Tris-HCl pH 7.5, 150 mM NaCl, 1 mM EDTA, 1% NP40, 10% …; immunoblotting.

In assay [2] the target is Epidermal growth factor receptor (EGFR), human (human (endogenous in HT-29)) (UniProt P00533). Nature of the assay: co-IP; HT-29 cell lysates, cells treated with DMSO, PF-562271 (5 µM) or erlotinib (10 µM) for 1 hr; same immunoprecipitation protocol as for tissue lysates (anti-EGFR agarose); anti-HA or anti-Flag beads as controls; immunoblotting.

As to “Focal adhesion kinase (Fak), mouse (from UniProt P34152 1-1052)”, the binding entry in assay [1] is “binds”. On to “Focal adhesion kinase (FAK), human (from UniProt Q05397 1-1052)”, for which the binding result in assay [2] was “binds”.
